# Measurements reported in PubChem BioAssay AID686943 (Drosophila RNAi Screening Center, 2013).
# Assay: 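Knockdowns that increase or decrease active ERK after insulin receptor stimulation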 (primary screen)
# System: Drosophila S2R+ haemocyte-like cells expressing YFP-tagged ERK (Rolled)
# Reagents: long dsRNA against Drosophila genes
# Treatment: insulin stimulation versus unstimulated cells; dose and duration not given
# Detection: 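Per-plate z-scores of phospho-ERK immunostaining normalised to YFP-tagged ERK, measured with and without insulin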
# Reading the numbers: replicate 1, z-score of dpERK with insulin and replicate 2, z-score of dpERK with insulin: higher = more active ERK per ERK-YFP after insulin; replicate 1, z-score of dpERK under basal conditions: higher = more basal active ERK per ERK-YFP; replicate 1, z-score of ERK-YFP with insulin: higher = more YFP-tagged ERK signal
# The deposit covers about 23,000 reagents; below is an unselected part of those with a known target gene and a result. 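Extra replicates exist only for a retested subset of genes; insulin dose and duration not given; both raised and lowered dpERK matter.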 Not stated in the record: the amount of reagent, the time to read-out.
The opening 6 entries, ahead of the listing:
target,dsRNA,"replicate 1, z-score of dpERK with insulin","replicate 2, z-score of dpERK with insulin","replicate 1, z-score of dpERK under basal conditions","replicate 1, z-score of ERK-YFP with insulin"
CG17376,DRSC21717,0.11,-0.82,0.21,0.9
CG12362,DRSC09884,-0.03,1.06,0.2,0.14
CR17438 (pseudo),DRSC18125,0.3,0.9,0.19,0.55
Abi (Abelson interacting protein),DRSC14099,-0.1,-0.63,-0.38,1.47
CG31848,DRSC01309,0.04,-0.06,0.01,0.01
CG33771,DRSC11718,0.53,0.43,1.24,-0.35

The list itself, from the start:
target,dsRNA,"replicate 1, z-score of dpERK with insulin","replicate 2, z-score of dpERK with insulin","replicate 1, z-score of dpERK under basal conditions","replicate 1, z-score of ERK-YFP with insulin"
CG17376,DRSC21717,0.11,-0.82,0.21,0.9
CG12362,DRSC09884,-0.03,1.06,0.2,0.14
CR17438 (pseudo),DRSC18125,0.3,0.9,0.19,0.55
Abi (Abelson interacting protein),DRSC14099,-0.1,-0.63,-0.38,1.47
CG31848,DRSC01309,0.04,-0.06,0.01,0.01
CG33771,DRSC11718,0.53,0.43,1.24,-0.35
tnc (tenectin),DRSC14647,-1.88,-0.92,-0.28,0.85
CG30020,DRSC06252,-0.58,-0.72,0.78,1.93
CG30020,DRSC06730,-0.35,0.38,0.36,0.94
CstF50 (Cleavage stimulation factor 50 kD subunit),DRSC15434,1.92,2.52,3.56,-2.02
Dhfr (Dihydrofolate reductase),DRSC16646,2,0,-0.23,-1.36
CG30345,DRSC05144,0.03,0.33,-0.23,-0.01
CG33770,DRSC11717,-0.23,0.16,0.35,0.42
Cyp309a2 (Cytochrome P450 309a2),DRSC00526,0.02,0.55,2.03,-0.28
wac (wee Augmin),DRSC08349,-1.16,-0.42,-0.58,0.16
CG30203,DRSC06690,-0.49,0.23,-0.54,0.61
Lpt (Lost PHDs of trr),DRSC04291,1.06,-0.87,-0.12,-0.55
Lpt (Lost PHDs of trr),DRSC04515,0.16,0,-0.66,-0.47
Hibch (3-hydroxyisobutyryl-CoA hydrolase),DRSC15705,1.15,0.35,-1.19,0.57
Prx6c (Peroxiredoxin 6c),DRSC06080,0.58,0.09,0.1,-0.16
l(3)73Ah (lethal (3) 73Ah),DRSC11359,-1.28,-0.08,0.29,1.12
Mtpbeta (Mitochondrial trifunctional protein beta subunit),DRSC04663,0.84,0.43,0.68,-0.6
CG8420,DRSC16418,-0.17,-0.34,-0.08,-0.39
qsm (quasimodo),DRSC05896,0.13,-0.28,0.26,0.38
qsm (quasimodo),DRSC06393,-2.04,-1.67,-0.26,0.6
CG9586,DRSC03270,0.46,0.18,1.2,-0.46
lncRNA:CR32730 (long non-coding RNA:CR32730),DRSC22957,0.68,0.43,0.85,0.68
Gr58a (Gustatory receptor 58a),DRSC03910,0.04,0.86,-0.08,0.4
Rpt6R (Regulatory particle triple-A ATPase 6-related),DRSC15431,1.3,2.09,-0.26,-0.04
Mondo,DRSC02667,0.14,-0.67,0.52,0.26
Mondo,DRSC02668,0.77,0.61,-2.96,-0.21
Mondo,DRSC22006,-0.99,-1.45,-1.65,0.25
Cbp20 (cap binding protein 20),DRSC16601,0.41,-0.09,-1.47,5.3
toc (toucan),DRSC00169,0.54,-0.3,-0.1,1.01
toc (toucan),DRSC00171,-0.28,1.37,1.01,0.16
toc (toucan),DRSC00842,0.94,-0.11,-0.64,-1.29
CG8564,DRSC10997,0.42,0.11,0.59,-0.32
sano (serrano),DRSC06165,1.33,1.28,1.03,-0.41
CG17724,DRSC06687,-1.57,-0.43,0.19,1.14
CG7789,DRSC16312,-0.13,0.17,0.32,0.47
Dbct (Dihydrolipoamide branched chain transacylase E2),DRSC19951,0.34,0.42,-0.53,0.33
AnxB10 (Annexin B10),DRSC20677,-0.05,0.34,-0.54,0.61
Rpt4 (Regulatory particle triple-A ATPase 4),DRSC18713,-3.24,-3.44,-3.25,3.88
CG11655,DRSC19413,-0.72,-0.14,2.4,0.9
CG13071,DRSC09954,-0.18,-0.04,0.78,1.1
CG11436,DRSC17783,-0.66,0.18,0.2,-0.65
CG32095,DRSC22615,-0.08,-1.48,-0.21,0.93
CG6282,DRSC10616,0.92,-0.63,-0.2,-0.2
Cyp4s3 (Cytochrome P450 4s3),DRSC20241,1.57,-0.11,-0.16,-0.6
Cyp4s3 (Cytochrome P450 4s3),DRSC22340,0.46,-0.07,0.69,0.2
LpR1 (Lipophorin receptor 1),DRSC15665,0.01,-0.37,0.01,0.74
LpR1 (Lipophorin receptor 1),DRSC15669,-0.6,0.01,-0.36,0.02
LpR1 (Lipophorin receptor 1),DRSC15670,0.04,0,-0.53,-0.05
eIF4E7 (eukaryotic translation initiation factor 4E7),DRSC17782,0.39,0.53,-0.37,0.16
eIF4E7 (eukaryotic translation initiation factor 4E7),DRSC18623,-0.45,-0.39,-0.14,-0.17
CG13551,DRSC21847,0.42,0.78,-1.26,-0.22
CG6984,DRSC07013,-0.86,-0.8,2.45,0.87
